From patent US12297294B2, “Cortistatin analogues for the treatment of inflammatory and/or immune diseases” (BCN PEPTIDES, S.A., priority 2013, dated 2025)
At least one peptide structure holds a part that was inferred or is arguable (an end, a ring closure or a residue). Some entries repeat one wording, which the source may state once for all of them. Some entries share one result that the patent states for a list of compounds. Some compounds share one range, which may span the group rather than tell each member.

System: Collagen Induced Arthritis (CIA) in Mice
Experiment: Collagen induced arthritis (CIA) model in mice
Assay type: in vivo, DBA/1 mice

## C[C@H](N)C(=O)NCC(=O)N[C@H]1CSSC[C@@H](C(=O)O)NC(=O)[C@H](CO)NC(=O)[C@H]([C@@H](C)O)NC(=O)[C@H](Cc2ccccc2)NC(=O)[C@H]([C@@H](C)O)NC(=O)[C@H](CCCCN)NC(=O)[C@@H](Cc2c[nH]c3ccccc23)NC(=O)[C@H](Cc2cc(F)cc(F)c2)NC(=O)[C@H](Cc2ccccc2)NC(=O)[C@H](CC(N)=O)NC(=O)[C@H](CCCCN)NC1=O [Compound 6, H-L-Ala-Gly-c[L-Cys-L-Lys-L-Asn-L-Phe-L-Dfp-D-Trp-L-Lys-L-Thr-L-Phe-L-Thr-L-Ser-L-Cys]-OH]
0.4 mg/kg s.c. once a day days 25-29
  reduction of clinical grade of arthritis and paw swelling (in words): substantial improvement
Day 50, sick mice 2.83 mm
  paw thickness: 2.3-2.5 mm
